# Reference: article PMC6447414
# Results are given in words; binding and its absence hold for the method and conditions named. Binding seen in cells or lysates may run through a third protein. Some binding calls cover weakened binding; strength is not graded here.
# T1: special AT-rich sequence-binding protein 2 (Satb2), endogenous in C2C12 (mouse (endogenous in C2C12)) (UniProt Q8VI24)
# T1 sequence: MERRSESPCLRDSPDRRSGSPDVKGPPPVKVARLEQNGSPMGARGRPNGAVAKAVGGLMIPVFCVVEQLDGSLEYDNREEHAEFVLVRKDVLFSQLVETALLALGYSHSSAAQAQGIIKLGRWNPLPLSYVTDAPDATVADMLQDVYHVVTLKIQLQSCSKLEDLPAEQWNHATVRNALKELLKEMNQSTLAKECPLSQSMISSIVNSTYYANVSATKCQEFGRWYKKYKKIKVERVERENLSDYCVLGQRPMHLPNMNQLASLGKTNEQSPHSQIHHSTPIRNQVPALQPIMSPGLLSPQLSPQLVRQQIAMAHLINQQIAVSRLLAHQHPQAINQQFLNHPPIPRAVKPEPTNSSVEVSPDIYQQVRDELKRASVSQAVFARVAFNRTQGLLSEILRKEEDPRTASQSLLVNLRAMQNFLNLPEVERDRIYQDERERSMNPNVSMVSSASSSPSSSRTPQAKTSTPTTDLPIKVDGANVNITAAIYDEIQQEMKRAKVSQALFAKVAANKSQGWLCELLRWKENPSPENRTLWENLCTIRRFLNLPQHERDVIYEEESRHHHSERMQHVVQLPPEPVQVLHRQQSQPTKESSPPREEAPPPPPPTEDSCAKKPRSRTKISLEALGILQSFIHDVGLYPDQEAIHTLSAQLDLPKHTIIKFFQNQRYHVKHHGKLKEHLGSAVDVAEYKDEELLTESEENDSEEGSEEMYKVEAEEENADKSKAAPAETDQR
# T2: Satb2, endogenous in Sol8 (mouse (endogenous in Sol8)) (UniProt Q8VI24)
# T2 sequence: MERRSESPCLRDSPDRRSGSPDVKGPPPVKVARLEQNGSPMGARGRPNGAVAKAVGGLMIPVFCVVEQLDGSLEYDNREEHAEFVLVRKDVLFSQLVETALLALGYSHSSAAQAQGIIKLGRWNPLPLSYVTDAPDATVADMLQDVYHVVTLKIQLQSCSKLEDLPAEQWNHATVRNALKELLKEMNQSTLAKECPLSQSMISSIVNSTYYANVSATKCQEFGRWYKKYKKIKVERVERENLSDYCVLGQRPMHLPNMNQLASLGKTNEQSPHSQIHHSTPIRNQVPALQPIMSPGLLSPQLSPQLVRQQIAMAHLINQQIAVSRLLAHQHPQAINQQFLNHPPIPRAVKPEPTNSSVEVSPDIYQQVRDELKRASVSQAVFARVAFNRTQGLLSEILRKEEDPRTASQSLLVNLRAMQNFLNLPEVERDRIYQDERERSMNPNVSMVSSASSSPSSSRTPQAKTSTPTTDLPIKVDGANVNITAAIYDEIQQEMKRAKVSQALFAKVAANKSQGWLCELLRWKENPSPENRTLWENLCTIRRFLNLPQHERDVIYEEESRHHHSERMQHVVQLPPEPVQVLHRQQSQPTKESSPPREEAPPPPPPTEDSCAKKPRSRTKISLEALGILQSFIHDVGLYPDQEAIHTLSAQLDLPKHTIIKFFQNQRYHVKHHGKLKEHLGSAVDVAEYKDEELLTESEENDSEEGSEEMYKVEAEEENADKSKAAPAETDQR
# B1: Zfp423, endogenous in C2C12 (protein, UniProt Q80TS5 1-1292)
# chain: MSRRKQAKPRSVKVEEGEASDFSLAWDSSVAAAGGLEGEPECDRKTSRALEDRNSVTSQEERNEDDEDVEDESIYTCDHCQQDFESLADLTDHRAHRCPGDGDDDPQLSWVASSPSSKDVASPTQMIGDGCDLGLGEEEGGTGLPYPCQFCDKSFIRLSYLKRHEQIHSDKLPFKCTFCSRLFKHKRSRDRHIKLHTGDKKYHCHECEAAFSRSDHLKIHLKTHSSSKPFKCSVCKRGFSSTSSLQSHMQAHKKNKEHLAKSEKEAKKDDFMCDYCEDTFSQTEELEKHVLTLHPQLSEKADLQCIHCPEVFVDESTLLAHIHQAHANQKHKCPMCPEQFSSVEGVYCHLDSHRQPDSSNHSVSPDPVLGSVASMSSATPDSSASVERGSTPDSTLKPLRGQKKMRDDGQSWPKVVYSCPYCSKRDFTSLAVLEIHLKTIHADKPQQSHTCQICLDSMPTLYNLNEHVRKLHKSHAYPVMQFGNISAFHCNYCPEMFADINSLQEHIRVSHCGPNANPPDGNNAFFCNQCSMGFLTESSLTEHIQQAHCSVGSTKLESPVVQPTQSFMEVYSCPYCTNSPIFGSILKLTKHIKENHKNIPLAHSKKSKAEQSPVSSDVEVSSPKRQRLSGSANSISNGEYPCNQCDLKFSNFESFQTHLKLHLELLLRKQACPQCKEDFDSQESLLQHLTVHYMTTSTHYVCESCDKQFSSVDDLQKHLLDMHTFVLYHCTLCQEVFDSKVSIQVHLAVKHSNEKKMYRCTACNWDFRKEADLQVHVKHSHLGNPAKAHKCIFCGETFSTEVELQCHITTHSKKYNCRFCSKAFHAVILLEKHLREKHCVFDAAAENGTANGVPPTSTKKAEPADLQGMLLKNPEAPNSHEASEDDVDASEPMYGCDICGAAYTMEVLLQNHRLRDHNIRPGEDDGSRKKAEFIKGSHKCNVCSRTFFSENGLREHLQTHRGPAKHYMCPICGERFPSLLTLTEHKVTHSKSLDTGTCRICKMPLQSEEEFIEHCQMHPDLRNSLTGFRCVVCMQTVTSTLELKIHGTFHMQKLAGSSAASSPNGQGLQKLYKCALCLKEFRSKQDLVRLDVNGLPYGLCAGCMARSANGQVGGLAPPEPADRPCAGLRCPECNVKFESAEDLESHMQVDHRDLTPETSGPRKGAQTSPVPRKKTYQCIKCQMTFENEREIQIHVANHMIEEGINHECKLCNQMFDSPAKLLCHLIEHSFEGMGGTFKCPVCFTVFVQANKLQQHIFAVHGQEDKIYDCSQCPQKFFFQTELQNHTMSQHAQ
# B2: Zfp423, endogenous in Sol8 (protein, UniProt Q80TS5 1-1292)
# chain: MSRRKQAKPRSVKVEEGEASDFSLAWDSSVAAAGGLEGEPECDRKTSRALEDRNSVTSQEERNEDDEDVEDESIYTCDHCQQDFESLADLTDHRAHRCPGDGDDDPQLSWVASSPSSKDVASPTQMIGDGCDLGLGEEEGGTGLPYPCQFCDKSFIRLSYLKRHEQIHSDKLPFKCTFCSRLFKHKRSRDRHIKLHTGDKKYHCHECEAAFSRSDHLKIHLKTHSSSKPFKCSVCKRGFSSTSSLQSHMQAHKKNKEHLAKSEKEAKKDDFMCDYCEDTFSQTEELEKHVLTLHPQLSEKADLQCIHCPEVFVDESTLLAHIHQAHANQKHKCPMCPEQFSSVEGVYCHLDSHRQPDSSNHSVSPDPVLGSVASMSSATPDSSASVERGSTPDSTLKPLRGQKKMRDDGQSWPKVVYSCPYCSKRDFTSLAVLEIHLKTIHADKPQQSHTCQICLDSMPTLYNLNEHVRKLHKSHAYPVMQFGNISAFHCNYCPEMFADINSLQEHIRVSHCGPNANPPDGNNAFFCNQCSMGFLTESSLTEHIQQAHCSVGSTKLESPVVQPTQSFMEVYSCPYCTNSPIFGSILKLTKHIKENHKNIPLAHSKKSKAEQSPVSSDVEVSSPKRQRLSGSANSISNGEYPCNQCDLKFSNFESFQTHLKLHLELLLRKQACPQCKEDFDSQESLLQHLTVHYMTTSTHYVCESCDKQFSSVDDLQKHLLDMHTFVLYHCTLCQEVFDSKVSIQVHLAVKHSNEKKMYRCTACNWDFRKEADLQVHVKHSHLGNPAKAHKCIFCGETFSTEVELQCHITTHSKKYNCRFCSKAFHAVILLEKHLREKHCVFDAAAENGTANGVPPTSTKKAEPADLQGMLLKNPEAPNSHEASEDDVDASEPMYGCDICGAAYTMEVLLQNHRLRDHNIRPGEDDGSRKKAEFIKGSHKCNVCSRTFFSENGLREHLQTHRGPAKHYMCPICGERFPSLLTLTEHKVTHSKSLDTGTCRICKMPLQSEEEFIEHCQMHPDLRNSLTGFRCVVCMQTVTSTLELKIHGTFHMQKLAGSSAASSPNGQGLQKLYKCALCLKEFRSKQDLVRLDVNGLPYGLCAGCMARSANGQVGGLAPPEPADRPCAGLRCPECNVKFESAEDLESHMQVDHRDLTPETSGPRKGAQTSPVPRKKTYQCIKCQMTFENEREIQIHVANHMIEEGINHECKLCNQMFDSPAKLLCHLIEHSFEGMGGTFKCPVCFTVFVQANKLQQHIFAVHGQEDKIYDCSQCPQKFFFQTELQNHTMSQHAQ
# Key:
# [1] = target: T1, special AT-rich sequence-binding protein 2 (Satb2), endogenous in C2C12 (mouse (endogenous in C2C12)); test: co-IP; untransfected C2C12 cells in HKMG lysis buffer (10 mM HEPES pH 7.9, 100 mM KCl, 5 mM MgCl2, 10% glycerol, 1 mM DTT, 0.5% NP-40); 1 mg of protein with anti-Zfp423, anti-Satb2 or normal IgG on protein G-Dynabeads, 3 h at 4°C; Western blot
# [2] = target: T2, Satb2, endogenous in Sol8 (mouse (endogenous in Sol8)); test: co-IP; Sol8 cells; data not shown
Binder,binding [1],binding [2]
B1,binds,–
B2,–,binds
